Data as given in patent US20100099614A1, “Antimicrobial Peptides and Methods of Use” (priority 2008, published 2010).
At least one peptide structure holds a part that was inferred or is arguable (an end, a ring closure or a residue). Some results were stated once for a whole list of compounds, not compound by compound.

What was measured:
[1] = Helical structure by circular dichroism spectroscopy; format: physicochemical; details: 100 mM KCl, 50 mM aq. PO4, pH 7
Protocol: The mean residue molar ellipticities of peptides were determined by circular dichroism (CD) spectroscopy, using a Jasco J-810 spectropolarimeter (Easton, Md.) at 5° C. under benign (non-denaturing) conditions (50 mM NaH2PO4/Na2HPO4/100 mM KCl, pH 7.0), hereafter referred to as benign buffer, as well as in the presence of an α-helix inducing solvent, 2,2,2-trifluoroethanol, TFE, (50 mM NaH2PO4/Na2HPO4/[…], pH 7.0 buffer/50% TFE). A 10-fold dilution of an approximately […] stock solution of the peptide analogs was loaded into a 0.1 cm quartz cell and its ellipticity scanned from 195 to 250 nm. The values of molar ellipticities of the peptide analogs at a wavelength of 222 nm were used to estimate the relative α-helicity of the peptides.

[2] = Peptide hydrophobicity by RP-HPLC retention; format: physicochemical; details: 80° C., non-polar face substitution
Protocol: Peptide Synthesis and Purification—Syntheses of the peptides were carried out by solid-phase peptide synthesis using t-butyloxycarbonyl chemistry and MBHA (4-methylbenzhydrylamine) resin (0.97 mmol/g), followed by cleavage of the peptide from the resin as described previously (117-119). However, it is understood in the art that there are other suitable instruments and methods for automated or manual peptide synthesis that could be employed to produce the peptides described herein. Peptide purification was performed by reversed-phase high-performance liquid chromatography (RP-HPLC) on a Zorbax 300 SB-C8 column (250×9.4 mm I.D.; 6.5 μm particle size, 300 Å pore size; Agilent Technologies, Little Falls, Del.) with a linear AB gradient (0.1% acetonitrile/min) at a flow rate of 2 mL/min, where eluent A was 0.2% aqueous trifluoroacetic acid (TFA), pH 2, and eluent B was 0.2% TFA in acetonitrile, where the shallow 0.1% acetonitrile/min gradient started 12% below the acetonitrile concentration required to elute the peptide on injection of analytical sample using a gradient of 1% acetonitrile/min (113). […] Crude and purified peptides were analyzed on an Agilent 1100 series liquid chromatograph. […]
Analytical RP-HPLC of Peptides—Peptides were analyzed on an Agilent 1100 series liquid chromatograph (Little Falls, Del.). […]

Gram-negative bacteria = experiment: Antibacterial activity (MIC), microtiter dilution; format: cell-based
Protocol: MICs were determined by a standard microtiter dilution method in Mueller Hinton Broth (MHB). Serial dilutions of the 10× compound were added to the microtiter plates in a volume of 10 μL followed by 90 μL of bacteria for an inoculum of 5×10^5 colony-forming units (CFU)/mL. The plates were incubated at 37° C. for 24 h, and the MICs were determined as the lowest peptide concentration that inhibited growth. […]
Alternatively; minimal inhibitory concentrations were determined using a standard microtiter dilution method in a Mueller-Hinton (MH) medium. Briefly, cells were grown overnight at 37° C. in MH broth and diluted in the same medium. Serial dilutions of the peptides were added to the microtiter plates in a volume of 100 μl followed by 10 μl of bacteria for an initial cell concentration of 1×10^5 CFU/ml. Plates were incubated at 37° C. for 24 hours and MICs determined as the lowest peptide concentration that inhibited growth.

## CC[C@H](C)[C@H](NC(=O)[C@H](C)NC(=O)[C@H](CCCCN)NC(=O)[C@H](CC(C)C)NC(=O)[C@H](C)NC(=O)[C@@H](NC(=O)[C@H](Cc1c[nH]cn1)NC(=O)[C@H](CC(C)C)NC(=O)[C@@H](NC(=O)[C@@H](NC(=O)[C@H](CCCCN)NC(=O)[C@H](CCCCN)NC(=O)[C@H](C)NC(=O)[C@H](CO)NC(=O)[C@H](CCCCN)NC(=O)[C@H](Cc1ccccc1)NC(=O)[C@@H](NC(=O)[C@H](CCCCN)NC(=O)[C@H](CC(C)C)NC(=O)[C@H](Cc1ccccc1)NC(=O)[C@H](CO)NC(=O)[C@H](CCCCN)NC(=O)[C@H](Cc1c[nH]c2ccccc12)NC(=O)[C@H](CCCCN)NC(C)=O)[C@@H](C)O)[C@@H](C)O)C(C)C)[C@@H](C)O)C(=O)N[C@@H](CO)C(=O)N[C@@H](CO)C(N)=O [NKL]
[1]
  [θ]222 in benign conditions: −1,300 to −3,450
[2]
  change in hydrophobicity (RP-HPLC retention) relative to NVL: -12.61 min
Gram-negative bacteria; geometric mean of 6 gram-negative strains
  improvement on the average MIC value compared to V681: 2.8 fold

## Ac-KWKSFLKTFKSALKTVLHTALKAISS-NH2 [NLL]
Gram-negative bacteria; Gram-negative bacteria
  antimicrobial activity, fold weaker than NKL: 4 fold
